Results as given in PubChem BioAssay AID2685 (National Center for Advancing Translational Sciences (NCATS), 2010).
The other results are listed elsewhere or left out. Shown are side measurements of this screen, not its main read-out; they come without a call. The list favours compounds with an active or inconclusive main result. The note in brackets gives the kind of curve behind each potency; many fits are weak.

Assay: qHTS Assay for Lipid Storage Modulators in Drosophila S3 Cells;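 as to cell number change: cells counted by Cell Tracker Red CMTPX staining in the red channel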
Settings: BODIPY lipid droplet fluorescence, 18-24 h; for cell number change: measured here: cell count max response, cells fed with added oleic acid
In short: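 Drosophila S3 cells got compounds at several concentrations plus oleic acid (400 uM solution). Laser-scanning cytometry with 488 nm excitation read lipid droplets at 500-530 nm and cells at 575-640 nm. Percent activity was relative to 20 uM Triacsin C.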

[1] = measured here: lipid fluorescence (Fed channel) AC50, cells fed with added oleic acid
[2] = measured here: cell number channel AC50, cells fed with added oleic acid

`Cc1ccc(CN2CC(C(=O)N3CCN(S(=O)(=O)c4c(F)cccc4F)CC3)CC2=O)cc1` (stereo not given) gave a cell number change of 14.5%.

For `O=S(=O)(Nc1ccc(O)c(Sc2nc3ccccc3s2)c1)c1cccc2ccccc12`, the cell number change was -14.9% and the AC50 [1] was 10.3 µM [falling, single point].

In the case of `CCOc1ccccc1OCCC(=O)NNC(=O)Cn1nc(C)cc1C`, the cell number change is reported as -28.5% and the AC50 [2] is reported as 0.651 µM [falling, full curve, poor fit].

For `Cc1ccc(C(=O)N/C(=C\c2cn(S(=O)(=O)N(C)C)c3ccccc23)C(=O)N2CCCC2)cc1`, the AC50 [1] was 0.58 µM [rising, single point].

For `Cc1ccccc1OCCC(=O)OCC(=O)NC1CC1`, the cell number change was 15.7% and the AC50 [1] was 29.1 µM [falling, single point].

For `CCOc1ccc(N(CC(=O)NCCc2ccccc2)C(=O)c2csnn2)cc1`, the cell number change was -12.4% and the AC50 [1] was 6.51 µM [rising, single point].

For `CCOC(=O)c1c(CN(C)C)oc2cc(CN(C)C)c(O)c(CSc3ccccc3)c12`, the cell number change was -14.2% and the AC50 [2] was 0.92 µM [rising, full curve, poor fit].

For `COc1ccc(C(=O)NC2=NCCS2)c(OC)c1`, the cell number change was -27% and the AC50 [1] was 29.1 µM [falling, single point].

In the case of `COc1ccc(-c2cc(C(F)(F)F)nc(SCC(=O)NCc3cccs3)n2)cc1`, the AC50 [2] is reported as 2.06 µM [rising, partial curve] and the AC50 [1] is reported as 6.51 µM [rising, single point].

With `CCCCCC(=O)N1CC2(C)CN(C(=O)CCCCC)CC(C)(C1)C2=O` the cell number change was 17.4%, the AC50 [2] was 0.731 µM [falling, full curve] and the AC50 [1] was 0.58 µM [falling, single point].

With `N#Cc1c(NCCCO)nc(-c2ccco2)c2c1CCCC2` the cell number change was 63.9%, the AC50 [2] was 7.31 µM [rising, partial curve] and the AC50 [1] was 4.11 µM [falling, single point].

For `COC(=O)CSc1ccc(-c2nc3ccc(C)cc3[nH]2)cn1`, the cell number change was -22.4%, the AC50 [2] was 3.26 µM [falling, single point] and the AC50 [1] was 3.26 µM [falling, full curve].

For `C=CCn1c(SCC(=O)Nc2ccccc2CC)nnc1-c1ccncc1`, the cell number change was 69.4%, the AC50 [2] was 11.6 µM [rising, partial curve] and the AC50 [1] was 2.31 µM [rising, full curve, poor fit].

With `COc1ccc(C2C(C(=O)c3sc(C)nc3C)=C(O)C(=O)N2CCN(C)C)cc1` (stereo not given) the cell number change was -49%, the AC50 [2] was 0.291 µM [falling, full curve] and the AC50 [1] was 29.1 µM [falling, single point].

With `CC1CN(C(=O)c2cccc(C(=O)N3CC(C)OC(C)C3)c2)CC(C)O1` (stereo not given) the AC50 [1] was 2.06 µM [falling, single point].

Work on `COc1ccc(-c2nc(CS(=O)(=O)CC(=O)Nc3ccc(Cl)cc3)c(C)o2)cc1` yielded a cell number change of 13.1%.

For `O=C(CCC(=O)c1cccs1)NCc1cccnc1`, the cell number change was -14.8% and the AC50 [1] was 0.651 µM [falling, partial curve, poor fit].

In the case of `O=c1cc(O)n(-c2ccc(Cl)cc2)c(=S)[nH]1`, the AC50 [1] is reported as 0.00461 µM [falling, full curve, poor fit].

For `CCOC(=O)c1sc(NC(=S)NC(=O)CC(C)C)cc1C`, the cell number change was -36.7%, the AC50 [2] was 13 µM [falling, partial curve, poor fit] and the AC50 [1] was 20.6 µM [falling, partial curve, poor fit].

For `C/C(=N/NS(=O)(=O)c1ccccc1)c1ccc(NC(=O)C2CC2)cc1`, the cell number change was 3.95% and the AC50 [1] was 0.259 µM [rising, partial curve, poor fit].

For `Cc1noc(C)c1C(=O)OCC(=O)Nc1cccc(S(N)(=O)=O)c1`, the cell number change was 158%.

In the case of `CN(C)S(=O)(=O)N1CCc2ccc(NC(=O)C3CCCO3)cc2C1` (stereo not given), the cell number change is reported as -4.7%.

With `O=C(Nc1cccc(F)c1)N1CCN(C/C=C/c2ccccc2)CC1` the AC50 [2] was 1.84 µM [rising, partial curve] and the AC50 [1] was 0.82 µM [rising, single point].

For `Cc1ccc(S(=O)(=O)N2[C@@H](c3ccccc3)C(C(=O)O)=CC[C@H]2c2ccc(Cl)c(Cl)c2)cc1`, the cell number change was -19% and the AC50 [1] was 29.1 µM [rising, single point].

For `Cc1cccc(OCCCCCN2CCOCC2)c1`, the AC50 [2] was 0.58 µM [rising, single point] and the AC50 [1] was 0.58 µM [falling, single point].

For `O=C(O)c1cc(N/N=C/c2ccc(-c3ccc(F)cc3)o2)ccc1Cl`, the cell number change was 16.2% and the AC50 [1] was 0.231 µM [falling, full curve, poor fit].

In the case of `Cc1nn(-c2ccccc2)c(N2CCCC2)c1/C=N/NC(=O)c1cc2ccccc2cc1O`, the cell number change is reported as 6.94% and the AC50 [1] is reported as 8.2 µM [rising, partial curve, poor fit].

In the case of `O=C1CCCCc2sc(Br)c([N+](=O)[O-])c2N1`, the cell number change is reported as -43.8%, the AC50 [2] is reported as 18.4 µM [falling, single point] and the AC50 [1] is reported as 29.1 µM [falling, single point].

In the case of `CCCCOc1ccc(CNC(=S)N/N=C/c2ccc(OC)c(OC)c2)cc1`, the cell number change is reported as 37.4% and the AC50 [2] is reported as 29.1 µM [rising, single point].

With `CCc1ccc(NC(=O)NNC(=O)CCc2ccccc2)cc1` the cell number change was 1.98%.

`N#Cc1c2n(c3c(=O)n(Cc4ccc(Cl)cc4)cnc13)CCCCC2` showed a cell number change of -10.5%.

For `COc1ccccc1CNC(=O)N[C@@H](Cc1ccccc1)C(=O)O`, the cell number change was 12.2% and the AC50 [1] was 0.651 µM [falling, single point].

For `Cn1cc(CCC(=O)N2CCCC(C(=O)c3cccc4ccccc34)C2)cn1` (stereo not given), the cell number change was -28.9% and the AC50 [1] was 25.9 µM [falling, single point].

With `CCN(CC)CCCNc1oc(-c2ccccc2[N+](=O)[O-])nc1C#N` the cell number change was -33.5%, the AC50 [2] was 29.1 µM [falling, single point] and the AC50 [1] was 20.6 µM [falling, single point].

In the case of `COc1ccccc1OCCSc1nc2ccccc2n1CC(N)=O`, the cell number change is reported as 47.2% and the AC50 [2] is reported as 16.4 µM [rising, partial curve, poor fit].

In the case of `CCCNC(=O)NC(=O)CSc1nnc(-c2ccncc2)n1CC`, the cell number change is reported as 2.2% and the AC50 [1] is reported as 29.1 µM [rising, single point].

With `CCN1CC(CN(C)Cc2nc(Cc3ccccc3)no2)CC1=O` (stereo not given) the cell number change was 4.07% and the AC50 [1] was 0.092 µM [falling, full curve, poor fit].

In the case of `CCOc1ccc(NC(=O)CC2Nc3ccccc3NC2=O)cc1` (stereo not given), the cell number change is reported as 35.6% and the AC50 [2] is reported as 6.51 µM [rising, partial curve, poor fit].

For `O=C(Nc1ccccc1)c1nnsc1S(=O)c1ccc(Cl)cc1` (stereo not given), the cell number change was -84.7%, the AC50 [2] was 23.1 µM [falling, partial curve] and the AC50 [1] was 1.3 µM [falling, partial curve, poor fit].

With `CC(=O)c1c(-c2ccccc2)c2cc([N+](=O)[O-])ccc2[nH]c1=O` the cell number change was 24.3%.

With `Clc1ccc2ncc(-c3nnnn3-c3ccccc3)c(-c3ccccc3)c2c1` the cell number change was 2.38% and the AC50 [1] was 4.61 µM [rising, partial curve].

In the case of `CCOc1ccc2ncc(S(=O)(=O)c3ccccc3)c(N3CCC4(CC3)OCCO4)c2c1`, the cell number change is reported as -36.7% and the AC50 [2] is reported as 32.6 µM [falling, single point].

With `CCCc1[nH]nc2c1C1(CCOC1C)C(C#N)=C(N)O2` (stereo not given) the cell number change was -10.5% and the AC50 [2] was 7.31 µM [falling, single point].

With `Cc1ccc(Cl)cc1NC(=O)CN1CCN(C(=O)C2CCCO2)CC1` (stereo not given) the AC50 [2] was 2.06 µM [rising, partial curve] and the AC50 [1] was 6.51 µM [rising, single point].

For `O=c1cc(-c2ccc(O)cc2)oc2c1ccc1ccccc12`, the cell number change was -7.02% and the AC50 [1] was 25.9 µM [falling, single point].

For `CCCC1C(=O)Nc2ccccc2N1C(=O)c1ccc(C(C)(C)C)cc1` (stereo not given), the cell number change was -55.5%, the AC50 [2] was 18.4 µM [falling, single point] and the AC50 [1] was 20.6 µM [falling, partial curve].

In the case of `C/C(=N\NC(=O)c1c[nH]c2ccccc12)c1ccc(C)o1`, the cell number change is reported as 12.2%, the AC50 [2] is reported as 1.46 µM [rising, partial curve] and the AC50 [1] is reported as 1.03 µM [rising, full curve].

With `C/C(=N/NS(=O)(=O)c1ccc(Cl)cc1)c1cccc(NC(=O)c2ccc(Cl)cc2Cl)c1` the cell number change was 12.6% and the AC50 [1] was 16.4 µM [rising, partial curve, poor fit].

In the case of `N#CCC(=O)N1CCN(C=O)CC1`, the cell number change is reported as -33.2%, the AC50 [2] is reported as 0.326 µM [falling, full curve, poor fit] and the AC50 [1] is reported as 4.61 µM [falling, full curve, poor fit].

In the case of `C=Cc1cccc(NC(=O)COc2ccccc2)c1`, the AC50 [2] is reported as 3.66 µM [rising, single point].

For `C=CCN(C(=O)c1csnn1)C(C(=O)NCc1ccc(F)cc1)c1sccc1C` (stereo not given), the cell number change was -23.8%.

For `Cc1nnc(SCc2nc3ccccc3s2)n1N`, the AC50 [2] was 0.92 µM [rising, full curve] and the AC50 [1] was 4.11 µM [rising, full curve].

With `CCOc1cc(C2C3=C(CC(C)(C)CC3=O)N(CCOC)C3=C2C(=O)CC(C)(C)C3)ccc1O` the cell number change was -2.55%.

For `Cc1cccc(NC(=O)Cn2c(=O)n(Cc3ccccc3)c(=O)c3c(C)c(C)sc32)c1`, the cell number change was -7.67% and the AC50 [1] was 32.6 µM [falling, single point].

In the case of `Cc1nnc(SCc2ccc(Cl)cc2)nc1/C=C/N(C)C`, the cell number change is reported as 16.2%, the AC50 [2] is reported as 0.00517 µM [rising, full curve, poor fit] and the AC50 [1] is reported as 0.058 µM [rising, full curve, poor fit].

In the case of `COc1cc(S(=O)(=O)NCCCN2CCOCC2)ccc1-n1cnnn1`, the cell number change is reported as -40.7%, the AC50 [2] is reported as 29.1 µM [falling, single point] and the AC50 [1] is reported as 18.4 µM [falling, single point].

For `Cc1cc(C(C)(C)C)oc1C(=O)N(CC(=O)NC1CCCC1)Cc1ccc(F)cc1`, the AC50 [2] was 2.59 µM [falling, single point] and the AC50 [1] was 5.8 µM [falling, single point].
